{
  "source": "paper PMC8782923",
  "about": "“A Klotho-derived peptide protects against kidney fibrosis by targeting TGF-β signaling” (Nature Communications, 2022)",
  "binders": {"B1": {"name": "TβR1, endogenous in NRK-49F cells (receptor, UniProt P80204 30-501)", "chain": "LQCFCHLCTKDNFTCETDGLCFVSVTETTDKVIHNSMCIAEIDLIPRDRPFVCAPSSKTGAVTYCCNQDHCNKIELPTTGPFSEKQSAGLGPVELAAVIAGPVCFVCIALMLMVYICHNRTVIHHRVPNEEDPSLDRPFISEGTTLKDLIYDMTTSGSGSGLPLLVQRTIARTIVLQESIGKGRFGEVWRGKWRGEEVAVKIFSSREERSWFREAEIYQTVMLRHENILGFIAADNKDNGTWTQLWLVSDYHEHGSLFDYLNRYTVTVEGMIKLALSTASGLAHLHMEIVGTQGKPAIAHRDLKSKNILVKKNGTCCIADLGLAVRHDSATDTIDIAPNHRVGTKRYMAPEVLDDSINMKHFESFKRADIYAMGLVFWEIARRCSIGGIHEDYQLPYYDLVPSDPSVEEMRKVVCEQKLRPNIPNRWQSCEALRVMAKIMRECWYANGAARLTALRIKKTLSQLSQQEGIKM"}, "B2": {"name": "human secreted Klotho (sKlotho) that only contains KL1 domain (protein, UniProt Q9UEF7-2 34-549)", "chain": "EPGDGAQTWARFSRPPAPEAAGLFQGTFPDGFLWAVGSAAYQTEGGWQQHGKGASIWDTFTHHPLAPPGDSRNASLPLGAPSPLQPATGDVASDSYNNVFRDTEALRELGVTHYRFSISWARVLPNGSAGVPNREGLRYYRRLLERLRELGVQPVVTLYHWDLPQRLQDAYGGWANRALADHFRDYAELCFRHFGGQVKYWITIDNPYVVAWHGYATGRLAPGIRGSPRLGYLVAHNLLLAHAKVWHLYNTSFRPTQGGQVSIALSSHWINPRRMTDHSIKECQKSLDFVLGWFAKPVFIDGDYPESMKNNLSSILPDFTESEKKFIKGTADFFALCFGPTLSFQLLDPHMKFRQLESPNLRQLLSWIDLEFNHPQIFIVENGWFVSGTTKRDDAKYMYYLKKFIMETLKAIKLDGVDVIGYTAWSLMDGFEWHRGYSIRRGLFYVDFLSQDKMLLPKSSALFYQKLIEKNGFPPLPENQPLEGTFPCDFAWGVVDNYIQVSQLTKPISSLTKPYH"}, "B3": {"name": "TGF-β receptor 2 (TβR2), endogenous in NRK-49F cells (receptor, UniProt P38438 24-567)", "chain": "IPPHVPKSVNSDLMAGDNSGAVKLPQLCKFCDVTLSTCDNQKSCMSNCSVTSICEKPQEVCVAVWRKNDKNITLETVCHDPKFTYHGFTLEDATSPTCVMKEKKRAGETFFMCSCNTEECNDYIIFNEEYTTSSPDLLLVIIQVTGVSLLPPLGIAIAVIAIFYCYRVHRQQKLSPSWESSKPRKLMDFSDNCAIILEDDRSDISSTCANNINHNTELLPIELDTLVGKGRFAEVYKAKLKQNTSEQFETVAVKIFPYEEYSSWKTEKDIFSDINLKHENILQFLTAEERKTEMGKQYWLITAFHAKGNLQEYLTRHVISWEDLRKLGSSLARGIAHLHSDHTPCGRPKMPIVHRDLKSSNILVKNDLTCCLCDFGLSLRLDPTLSVDDLANSGQVGTARYMAPEVLESRMNLENMESFKQTDVYSMALVLWEMTSRCNAVGEVKDYEPPFGSKVREHPCVESMKDNVLRDRGRPEIPSFWLNHQGIQIVCETLTECWDHDPEARLTAQCVAERFSELEHPDRLSGRSCSQEKIPEDGSLNTTK"}},
  "key": {"[1]": {"molecular_target": "T1, TGF-β receptor 2 (TβR2), endogenous in NRK-49F cells (rat (endogenous in NRK-49F)) (UniProt P38438)", "T1 sequence": "B3 chain", "assay": "co-IP; TβR1 with TβR2 in cells in the absence or presence of KP1 (Fig. 2h)"}, "[2]": {"molecular_target": "T1, TGF-β receptor 2 (TβR2), endogenous in NRK-49F cells (rat (endogenous in NRK-49F))", "assay": "co-IP; cells transfected with sKlotho plasmid for 24 h, incubated with TGF-β1 in the absence or presence of KP1; precipitated with anti-TβR2"}, "FITC-labeled KP1 (human)": {"molecular_target": "T2, FITC-labeled KP1 (human) (UniProt Q9UEF7)", "T2 sequence (peptide, fluorescein isothiocyanate (FITC) label, position not stated)": "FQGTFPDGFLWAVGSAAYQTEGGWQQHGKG", "assay": "co-IP; reciprocal: mixtures of NRK-49F cell lysate and FITC-KP1 precipitated with anti-FITC, blotted for TβR2 and FITC; only the target purified"}},
  "note": "No constants are given. Whether binding was seen depends on the method and setting. Binding seen in cells or lysates may run through a third protein. Some binding calls cover weakened binding; strength is not graded here.",
  "data": [
    {"binder": "B1", "values": [
      {"measurement": "binding", "setting": "[1]", "value": "binds"}
    ]},
    {"binder": "B2", "values": [
      {"measurement": "binding", "setting": "[2]", "value": "binds"}
    ]},
    {"binder": "B3", "values": [
      {"measurement": "binding", "setting": "FITC-labeled KP1 (human)", "value": "binds"}
    ]}
  ]
}
